Assay results published in patent publication US6709838.
Results are given in words; binding and its absence hold for the method and conditions named. Some results given as binding are weak or reduced against the parent protein; the word gives no strength.

The chains behind the UniProt entries cited, without tags or fusion partners. Where a name states a change or a piece, a line headed by the entry shows the natural chain unless it says otherwise.
UniProt Q9Y6C5: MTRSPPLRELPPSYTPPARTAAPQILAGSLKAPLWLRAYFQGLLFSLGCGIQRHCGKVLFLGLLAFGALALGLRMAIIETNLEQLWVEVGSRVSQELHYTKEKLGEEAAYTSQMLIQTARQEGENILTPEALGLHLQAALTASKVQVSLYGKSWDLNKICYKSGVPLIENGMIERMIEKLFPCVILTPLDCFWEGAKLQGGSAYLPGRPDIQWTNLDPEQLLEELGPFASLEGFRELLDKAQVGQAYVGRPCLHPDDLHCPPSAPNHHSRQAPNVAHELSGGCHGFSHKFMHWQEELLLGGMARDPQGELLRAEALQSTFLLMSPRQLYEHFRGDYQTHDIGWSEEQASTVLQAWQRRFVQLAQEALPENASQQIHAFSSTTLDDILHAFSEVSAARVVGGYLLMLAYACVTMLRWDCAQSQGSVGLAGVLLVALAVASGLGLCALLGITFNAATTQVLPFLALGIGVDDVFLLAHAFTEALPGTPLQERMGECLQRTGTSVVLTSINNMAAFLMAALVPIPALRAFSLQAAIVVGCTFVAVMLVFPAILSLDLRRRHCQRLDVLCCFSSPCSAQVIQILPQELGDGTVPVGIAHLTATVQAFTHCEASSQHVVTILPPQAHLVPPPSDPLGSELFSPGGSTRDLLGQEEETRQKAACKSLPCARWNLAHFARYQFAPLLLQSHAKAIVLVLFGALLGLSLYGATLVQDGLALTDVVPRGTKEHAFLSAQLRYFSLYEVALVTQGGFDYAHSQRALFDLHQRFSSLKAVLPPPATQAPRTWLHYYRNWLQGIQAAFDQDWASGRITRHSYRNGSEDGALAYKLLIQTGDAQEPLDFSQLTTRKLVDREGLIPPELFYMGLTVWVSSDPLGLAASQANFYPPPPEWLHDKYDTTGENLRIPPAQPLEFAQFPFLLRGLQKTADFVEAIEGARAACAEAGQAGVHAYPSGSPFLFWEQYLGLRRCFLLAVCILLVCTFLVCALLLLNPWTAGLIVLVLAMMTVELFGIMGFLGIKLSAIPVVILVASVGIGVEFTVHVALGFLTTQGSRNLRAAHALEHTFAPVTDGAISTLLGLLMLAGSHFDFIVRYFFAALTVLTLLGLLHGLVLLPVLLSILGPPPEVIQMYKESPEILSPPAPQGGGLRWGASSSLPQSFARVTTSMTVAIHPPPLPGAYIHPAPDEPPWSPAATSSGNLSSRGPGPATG

How the values were obtained:
[1] = target: human Ptch-2 (SEQ ID NO:2), overexpressed on transfected human 293 embryonic kidney cells (human) (UniProt Q9Y6C5); test: 125I-Shh competition on transfected 293 cells (FIG. 7A legend)
[2] = target: human Ptch-2 (SEQ ID NO:2), overexpressed on transfected human 293 embryonic kidney cells (human) (UniProt Q9Y6C5); test: 125I-Shh competition on transfected 293 cells

Dhh (SEQ ID NO:13) (from UniProt Q61488 23-198) (ligand)
binding [1]: binds | binding [2]: binds
